Results taken from PMC8216470.
These are yes or no findings as the source states them, for the method shown.

Biological target: T1, mouse ADAT3 (mouse) (UniProt Q6PAT0)
T1 sequence: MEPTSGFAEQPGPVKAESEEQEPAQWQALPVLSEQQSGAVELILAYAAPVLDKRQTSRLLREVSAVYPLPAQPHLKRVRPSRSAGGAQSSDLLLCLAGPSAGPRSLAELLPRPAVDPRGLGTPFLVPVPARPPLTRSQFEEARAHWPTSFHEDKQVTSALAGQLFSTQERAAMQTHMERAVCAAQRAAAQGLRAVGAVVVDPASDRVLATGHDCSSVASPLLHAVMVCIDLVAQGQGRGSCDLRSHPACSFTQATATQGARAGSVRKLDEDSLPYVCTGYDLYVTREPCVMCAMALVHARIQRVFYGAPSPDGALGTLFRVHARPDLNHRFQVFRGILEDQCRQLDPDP
Experiment: SEC; oligomeric state of the protein produced alone, as assessed by size exclusion chromatography; both purified

binding: no binding
B1: mouse ADAT3 (protein, UniProt Q6PAT0 1-349)
chain: MEPTSGFAEQPGPVKAESEEQEPAQWQALPVLSEQQSGAVELILAYAAPVLDKRQTSRLLREVSAVYPLPAQPHLKRVRPSRSAGGAQSSDLLLCLAGPSAGPRSLAELLPRPAVDPRGLGTPFLVPVPARPPLTRSQFEEARAHWPTSFHEDKQVTSALAGQLFSTQERAAMQTHMERAVCAAQRAAAQGLRAVGAVVVDPASDRVLATGHDCSSVASPLLHAVMVCIDLVAQGQGRGSCDLRSHPACSFTQATATQGARAGSVRKLDEDSLPYVCTGYDLYVTREPCVMCAMALVHARIQRVFYGAPSPDGALGTLFRVHARPDLNHRFQVFRGILEDQCRQLDPDP
